According to the supplement of paper PMC8166895:
Several values for one entry are separate records, joined by “and”; a condition that tells them apart may be missing. Equal values may be shown once. Where a name gives a salt, the structure may show the parent alone. The list shows a part of the results. Most values lie at the level of the controls, where differences are scatter.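 Differential scanning fluorimetry gave melting temperatures in a one-replicate pilot screen of a library of approved drugs plus clinical or known-target compounds. Hits increasing melting point at least 2 °C were the strongest stabilizers, while negative shifts signify destabilization.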

The compounds below were run on SARS-CoV-2 main protease (Mpro, nsp5) (assay: thermal shift ΔTm of Mpro relative to plate average Tm; higher = stronger thermal stabilization of Mpro (binding)). Settings: 10 µM; protein concentration 1 µM.

SMILES	thermal shift ΔTm of Mpro
C[C@@H](Nc1cc(NS(=O)(=O)N2CCC2)nc(SCc2cccc(F)c2F)n1)[C@@H](O)CO	0.02 °C
CC(C)c1cc(Oc2c(Cl)cc(-n3nc(C#N)c(=O)[nH]c3=O)cc2Cl)n[nH]c1=O	-0.124 °C
O=[N+]([O-])c1cc([As](=O)(O)O)ccc1O [Roxarsone]	0.154 °C
O=S(=O)(O)c1cc(O)ccc1O [Ethamsylate]	-0.386 °C
O=C1C[C@@H](c2ccc(O)cc2)Oc2cc(O)cc(O)c21 [Naringenin]	0.0106 °C
CCC(=O)O[C@]1(C(=O)CCl)[C@@H](C)C[C@H]2[C@@H]3CCC4=CC(=O)C=C[C@]4(C)[C@@]3(F)[C@@H](O)C[C@@]21C [Clobetasol propionate]	-0.117 °C
O=C1OCCN1/N=C/c1ccc([N+](=O)[O-])o1 [Furazolidone]	0.117 °C
NC(=O)c1ccc([N+](=O)[O-])cc1Cl [Alkomide]	-0.0895 °C
CCOC(=O)[C@H](CCc1ccccc1)N[C@H]1CS[C@H](c2cccs2)CN(CC(=O)O)C1=O [Temocapril HCl]	0.172 °C
COc1ccc(F)c(F)c1C(=O)c1cnc(NC2CCN(S(C)(=O)=O)CC2)nc1N	-0.0378 °C
CCc1nn(C)c(C(=O)NCc2ccc(C(C)(C)C)cc2)c1Cl [Tebufenpyrad]	0.176 °C
Nc1nc2n[nH]nc2c(=O)[nH]1 [Azaguanine-8]	-0.0732 °C
C[C@H]1C[C@H]2[C@@H]3C[C@H](F)C4=CC(=O)C=C[C@]4(C)[C@@]3(F)[C@@H](O)C[C@]2(C)[C@@]1(O)C(=O)CO [Diflorasone]	0.414 °C
CN(C)c1nc(N(C)C)nc(N(C)C)n1 [Altretamine]	0.177 °C
COc1cc2c(cc1-c1c(C)noc1C)ncc1[nH]c(=O)n([C@H](C)c3ccccn3)c12	0.156 °C
N[C@H](C(=O)O)[C@H](O)c1ccc(O)c(O)c1 [Droxidopa]	-0.0176 °C
COc1nccc(-c2c(-c3ccc(F)cc3)ncn2C2CCNCC2)n1	-0.0134 °C
CCn1c(=O)c(-c2cc[nH]n2)cc2c(C)nc(N)nc21 [Voxtalisib]	-0.0625 °C
COc1cc2c(Oc3ccc4[nH]c(C)cc4c3F)ncnc2cc1OCCCN1CCCC1 [Cediranib (AZD2171)]	-0.169 °C
CC(C)(C)c1nc2c3cc[nH]c(=O)c3c3cc(F)ccc3c2[nH]1 [Pyridone 6]	-0.0439 °C
CC(=O)O[C@]1(C(C)=O)CC[C@H]2[C@@H]3C[C@H](C)C4=CC(=O)CC[C@]4(C)[C@H]3CC[C@@]21C [Medroxyprogesterone acetate]	0.0226 °C
O=C(O)c1cc(-c2ccccc2)nc2ccccc12 [Cinchophen]	-0.0159 °C
C[C@H]1C[C@@H]2[C@H]([C@@H](O)C[C@@]3(C)[C@H]2CC[C@]3(O)C(=O)CO)[C@@]2(C)C=CC(=O)C=C12 [Methylprednisolone]	-0.0336 °C
CCn1cc(-c2cccc(C(F)(F)F)c2)c2sc(C(=N)NC3CCS(=O)(=O)CC3)cc2c1=O	-0.093 °C
CCCNCC(O)COc1ccccc1C(=O)CCc1ccccc1 (configuration not stated) [Propafenone HCl]	-0.0481 °C
CCCNCC(O)COc1ccccc1C(=O)CCc1ccccc1 (configuration not stated) [Propafenone]	0.0418 °C

Pulled one by one from the entries so far:
SMILES	thermal shift ΔTm of Mpro
CCOC(=O)[C@H](CCc1ccccc1)N[C@H]1CS[C@H](c2cccs2)CN(CC(=O)O)C1=O [Temocapril HCl]	0.172 °C
CC(C)(C)c1nc2c3cc[nH]c(=O)c3c3cc(F)ccc3c2[nH]1 [Pyridone 6]	-0.0439 °C
COc1nccc(-c2c(-c3ccc(F)cc3)ncn2C2CCNCC2)n1	-0.0134 °C
CN(C)c1nc(N(C)C)nc(N(C)C)n1 [Altretamine]	0.177 °C

The list goes on.

SMILES	thermal shift ΔTm of Mpro
C/C(=C/C(=O)O)C(=O)O [Citraconic acid]	-0.0302 °C
O=C1c2ccc(Nc3ccc(F)cc3F)cc2CCc2ccc(OC[C@H](O)CO)cc21 [Skepinone-L]	-0.202 °C
CCc1ccc(C(=O)COc2ccc(CC3SC(=O)NC3=O)cc2)nc1 (configuration not stated)	0.0106 °C
CNS(=O)(=O)C[C@H]1CC[C@H](N(C)c2[nH]cnc3nccc2-3)CC1 [Oclacitinib]	0.00881 °C
O=C(Nc1ccccc1)Nc1ccccc1 [1,3-Diphenylurea]	-0.276 °C
CN(C)C(=S)NN=C(c1ccccn1)c1ccccn1	-0.308 °C
COc1ccccc1OCC(O)CN1CCN(CC(=O)Nc2c(C)cccc2C)CC1 (configuration not stated) [Ranolazine]	0.0772 °C
COc1ccccc1OCC(O)CN1CCN(CC(=O)Nc2c(C)cccc2C)CC1 (configuration not stated) [Ranolazine 2HCl]	0.202 °C
COc1cc([C@@H]2c3cc4c(cc3[C@@H](O[C@@H]3O[C@@H]5CO[C@@H](C)O[C@H]5[C@H](O)[C@H]3O)[C@H]3COC(=O)[C@H]23)OCO4)cc(OC)c1O [Etoposide]	-0.259 °C
O=S(=O)(O)NC1CCCCC1 [Cyclamic  acid]	-0.085 °C
O=C(O)C(O)Cc1ccccc1 (racemic) [DL-3-Phenyllactic acid]	0.159 °C
CCN(CC)CCc1nc(-c2ccccc2)no1 [Oxolamine citrate]	0.257 °C
COc1ccc([C@]2(C#N)CC[C@@H](C(=O)O)CC2)cc1OC1CCCC1 [Cilomilast]	0.213 °C
CCOc1c2c(c(OCC)c3ccccc13)C(=O)N(c1ccc(CC(=O)NS(=O)(=O)c3ccccc3)cc1)C2	0.0737 °C
CNCC(O)c1ccc(OC(=O)C(C)(C)C)c(OC(=O)C(C)(C)C)c1 (configuration not stated) [Dipivefrin hydrochloride]	0.0185 °C
COCC[n+]1c2c(n(Cc3cnccn3)c1C)C(=O)c1ccccc1C2=O [YM155 (Sepantronium Bromide)]	-0.183 °C
O=C(NCCO)c1cccc(-c2cc(Nc3ccc(OC(F)(F)F)cc3)ncn2)c1	0.234 °C
C#CC[C@H](c1nc2cc(Cl)ccc2c(=O)n1Nc1ccccc1)N(CCCN)C(=O)c1cccc(Cl)c1F	-0.365 °C
Cc1c(N(C)CS(=O)(=O)O)c(=O)n(-c2ccccc2)n1C [Analgin]	0.346 °C
C[C@@H]1CCN(C(=O)CC#N)C[C@@H]1N(C)c1ncnc2[nH]ccc12	0.0476 °C and -0.0777 °C
Cc1cc2c(F)c(Oc3ncnn4cc(OC[C@@H](C)OC(=O)[C@H](C)N)c(C)c34)ccc2[nH]1	-0.213 °C
O=c1[nH]c(=O)n(C2CCCO2)cc1F (configuration not stated)	0.372 °C
CC(NCCC(c1ccccc1)c1ccccc1)c1ccccc1 (configuration not stated) [Fendiline hydrochloride]	0.313 °C
CCOC(=O)Nc1cc(-c2ccc(C)c(NS(C)(=O)=O)c2)nn2c(C)nnc12 [Bromosporine]	-0.0532 °C
CCCCNNC(=O)c1ccc(-c2cccc(F)c2F)cc1	-0.193 °C
Nc1cc(C(Cl)=C(Cl)Cl)c(S(N)(=O)=O)cc1S(N)(=O)=O [Clorsulon]	-0.0232 °C
